Measurements taken from article PMC9479434.
Results are given in words; binding and its absence hold for the method and conditions named. Binding seen in cells or lysates may run through a third protein. Some entries that bind do so weakly or less than the wild type.

The chains behind the UniProt entries cited, without tags or fusion partners. Residues count along the entry.
UniProt Q01705, residues 1744-2531: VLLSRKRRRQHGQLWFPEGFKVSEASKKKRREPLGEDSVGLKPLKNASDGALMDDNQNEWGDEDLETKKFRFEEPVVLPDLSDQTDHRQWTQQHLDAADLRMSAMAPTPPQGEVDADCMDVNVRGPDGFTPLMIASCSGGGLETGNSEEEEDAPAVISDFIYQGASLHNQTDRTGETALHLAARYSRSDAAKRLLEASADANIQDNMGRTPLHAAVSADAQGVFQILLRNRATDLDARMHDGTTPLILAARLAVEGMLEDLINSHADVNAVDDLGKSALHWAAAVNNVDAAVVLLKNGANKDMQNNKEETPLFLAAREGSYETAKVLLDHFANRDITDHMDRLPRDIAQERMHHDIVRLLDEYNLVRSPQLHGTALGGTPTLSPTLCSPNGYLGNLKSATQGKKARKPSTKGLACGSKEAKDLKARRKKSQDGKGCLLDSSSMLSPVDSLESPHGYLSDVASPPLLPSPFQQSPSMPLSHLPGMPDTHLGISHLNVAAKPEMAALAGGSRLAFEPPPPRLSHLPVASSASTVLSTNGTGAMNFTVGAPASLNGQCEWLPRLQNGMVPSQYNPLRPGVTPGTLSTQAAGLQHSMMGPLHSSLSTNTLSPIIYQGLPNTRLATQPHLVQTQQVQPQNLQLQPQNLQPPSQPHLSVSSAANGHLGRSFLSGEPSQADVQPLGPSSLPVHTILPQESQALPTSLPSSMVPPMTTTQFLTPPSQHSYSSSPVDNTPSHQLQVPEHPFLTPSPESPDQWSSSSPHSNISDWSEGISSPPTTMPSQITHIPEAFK
UniProt Q02248: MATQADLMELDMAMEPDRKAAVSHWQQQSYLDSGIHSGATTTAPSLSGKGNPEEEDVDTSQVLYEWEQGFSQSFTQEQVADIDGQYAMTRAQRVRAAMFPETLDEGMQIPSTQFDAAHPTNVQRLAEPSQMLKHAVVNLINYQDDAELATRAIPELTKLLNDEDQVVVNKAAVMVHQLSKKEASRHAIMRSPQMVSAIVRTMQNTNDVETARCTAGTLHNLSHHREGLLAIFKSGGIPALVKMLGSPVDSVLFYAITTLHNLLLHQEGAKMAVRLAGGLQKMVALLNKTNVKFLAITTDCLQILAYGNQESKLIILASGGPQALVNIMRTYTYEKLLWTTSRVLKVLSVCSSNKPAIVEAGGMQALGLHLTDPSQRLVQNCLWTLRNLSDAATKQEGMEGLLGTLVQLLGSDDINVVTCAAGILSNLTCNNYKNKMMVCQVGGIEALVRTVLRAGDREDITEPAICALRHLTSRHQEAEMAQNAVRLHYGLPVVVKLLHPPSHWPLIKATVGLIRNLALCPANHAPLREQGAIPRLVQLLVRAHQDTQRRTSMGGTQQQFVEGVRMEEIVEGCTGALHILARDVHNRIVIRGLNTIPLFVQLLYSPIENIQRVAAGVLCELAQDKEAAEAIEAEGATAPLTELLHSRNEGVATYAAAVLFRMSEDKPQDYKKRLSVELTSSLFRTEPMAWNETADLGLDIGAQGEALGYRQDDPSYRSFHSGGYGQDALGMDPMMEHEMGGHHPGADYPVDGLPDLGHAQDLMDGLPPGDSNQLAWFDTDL

Target: Notch1 intracellular domain (mouse (endogenous in bone marrow-derived macrophages)) (UniProt Q01705)
Test: co-IP; lysate of mouse bone marrow-derived macrophages (1 x 10^6) stimulated with LPS (100 ng/ml) for 6 h; endogenous proteins; which of the two was precipitated is not told in the text shown

Substance: β-catenin (from UniProt Q02248 1-781)
- binding: binds
